# Results taken from paper PMC7819943, “Rice protein-binding microarrays: a tool to detect cis-acting elements near promoter regions in rice”.
# This is one part of the list.
# Molecular target: T1, OsSMF1 (Oryza sativa, UniProt Q6ZLB0 1-436)
# T1 sequence: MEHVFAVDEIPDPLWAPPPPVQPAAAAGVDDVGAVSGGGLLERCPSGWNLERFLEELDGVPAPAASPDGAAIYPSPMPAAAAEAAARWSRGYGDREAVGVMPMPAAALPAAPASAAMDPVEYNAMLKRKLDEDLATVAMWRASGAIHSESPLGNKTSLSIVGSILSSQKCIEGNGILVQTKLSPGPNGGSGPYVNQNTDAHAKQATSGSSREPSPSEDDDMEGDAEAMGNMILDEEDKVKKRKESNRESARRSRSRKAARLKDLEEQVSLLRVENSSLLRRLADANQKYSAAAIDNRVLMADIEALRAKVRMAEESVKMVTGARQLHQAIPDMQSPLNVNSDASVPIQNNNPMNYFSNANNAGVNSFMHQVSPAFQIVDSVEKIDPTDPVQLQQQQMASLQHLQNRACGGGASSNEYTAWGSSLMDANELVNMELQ
# Assay: protein-binding microarray (RPBM); PBS, 2% BSA, 51.3 ng/ul salmon testes DNA, 50 uM zinc acetate, 200 nM TF, 25 C, 1 h; high values mean tight binding
# Details: protein: recombinant; tags: N-terminal polyhistidine and DsRed monomer fusion (pET32a); chain copies: 2; label: CyDye5-dUTP incorporated in the synthesized complementary strand; 3' TTTTT single-stranded linker to array surface; dsDNA, one strand shown
# Summary of the method: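 Transcription factors, each fused N-terminally to a polyhistidine tag and DsRed, were expressed in E. coli BL21-CodonPlus and purified on Ni–NTA. A custom Agilent array was made double-stranded by primer extension with Cy5-dUTP and blocked with 2% BSA. It was incubated with 200 nM protein in PBS, 2% BSA, salmon testes DNA and 50 µM zinc acetate at 25 °C for 1 h, then washed. The binding signal is per-feature fluorescence intensity (arbitrary units) read on an Axon 4000B scanner.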
row,Sequence,binding signal
1,ACGGAGGATGCGCCGCGCCATGTCAGCGGCCATGGGGTGCCGGAGTCACCTAGTGCAG,8800 fluorescence intensity (a.u.)
2,TCCCTGAACACAAAGCTACTGATGACTCGGTTCAGGCACACGGAGTCACCTAGTGCAG,4280 fluorescence intensity (a.u.)
3,CTCCGTTTTCACCCCTATGTATAGTTTATATGTAAATTGCCGGAGTCACCTAGTGCAG,3310 fluorescence intensity (a.u.)
4,ACCTCACGCAACTCACGTTCTTTGATCAAAGCCGTACTCACGGAGTCACCTAGTGCAG,22900 fluorescence intensity (a.u.)
5,ACTAGCTAGCTAGGTGTGCCACGCACTCGCACTGCACGGACGGAGTCACCTAGTGCAG,5860 fluorescence intensity (a.u.)
6,GCTGAGAAGATTCCCGAGTGGAAGCCACGTGGCAGACTCCCGGAGTCACCTAGTGCAG,14600 fluorescence intensity (a.u.)
7,GCATGCGGGTGAGGTGACAAGGACGCGGCCACGGGGATCACGGAGTCACCTAGTGCAG,4230 fluorescence intensity (a.u.)
8,TATGTCCTGATTAGTTCTGGTCTACTGGTATGCTGTTTGCCGGAGTCACCTAGTGCAG,35600 fluorescence intensity (a.u.)
9,CAACATATGCACTAACAAATGACAAACTTAGCAAAACTTGCGGAGTCACCTAGTGCAG,35700 fluorescence intensity (a.u.)
10,AAAAGTAGGAGTAAAATCACAATTGAATCGTAAAGCAAGACGGAGTCACCTAGTGCAG,4800 fluorescence intensity (a.u.)
11,AGAGCAGATCCCCTGTCACGCCGACGCCGCCGCCGCCACCCGGAGTCACCTAGTGCAG,5410 fluorescence intensity (a.u.)
12,CATAGTGCAGGGGAGAAGCCAGGGAAGAGGGAGGTGACGTCGGAGTCACCTAGTGCAG,3290 fluorescence intensity (a.u.)
13,TGCCAATGTTCCAATTGGTGTTGTCATCTTTGGGTTACCACGGAGTCACCTAGTGCAG,14100 fluorescence intensity (a.u.)
14,GGAGAAAATTGCGGAGGGGATCCACAGTTCCAGCCGCGTGCGGAGTCACCTAGTGCAG,3190 fluorescence intensity (a.u.)
15,CCACCTCGTCACGCATGCGTGTTCAAACGTGAACTAATCACGGAGTCACCTAGTGCAG,4340 fluorescence intensity (a.u.)
16,CGGCGCCGCCGATTTGATTCGCCCACCCCTAGGCCCCAGCCGGAGTCACCTAGTGCAG,29300 fluorescence intensity (a.u.)
17,TACCGCAAAGATGAAGCTACCTTTTACCAGTTGTATATTGCGGAGTCACCTAGTGCAG,35100 fluorescence intensity (a.u.)
18,GGAGGAGGAGGAGGAGGGATTGATTGGTGAGCTCGTGTTGCGGAGTCACCTAGTGCAG,3940 fluorescence intensity (a.u.)
19,AATGACACAGATATGAGTCATCGAAGCAGGGGATCCCCAACGGAGTCACCTAGTGCAG,7940 fluorescence intensity (a.u.)
20,GCTGTGGCTTTTGCATCGCATGCATGCGTGCTTTGCCTGGCGGAGTCACCTAGTGCAG,3160 fluorescence intensity (a.u.)
21,TTCTCTGTACACGTGGTGGCCCACCTGTGCACAACCTGCTCGGAGTCACCTAGTGCAG,9230 fluorescence intensity (a.u.)

row,Sequence,binding signal
1,TGTCAGGATGCCATGTCATCATCTGATCTCTTTCCCCTCCCGGAGTCACCTAGTGCAG,21000 fluorescence intensity (a.u.)
2,CAACCAGGCGGCAACGACGCTATGCTGGGATGACTCCTCGCGGAGTCACCTAGTGCAG,3500 fluorescence intensity (a.u.)
3,TTTTGCTGCATTCGCCATCGTCATTGACGAGTCGATCTATCGGAGTCACCTAGTGCAG,4670 fluorescence intensity (a.u.)
4,GTGGTACTAGTAGCTAGCTAGTGACACTTCAGAATCCTCTCGGAGTCACCTAGTGCAG,4520 fluorescence intensity (a.u.)
5,AGTGATCGTCTTTATTCGAATAGCTCGTCCAAAGTTGTGACGGAGTCACCTAGTGCAG,3160 fluorescence intensity (a.u.)
6,CGACGAGATGGTGATGAGGTGGTGGTGGTGGTGGACTGGTCGGAGTCACCTAGTGCAG,5700 fluorescence intensity (a.u.)
7,AAAACCTGTGCTTGTGCTGAGCTGCTGATACGCTGACATTCGGAGTCACCTAGTGCAG,3170 fluorescence intensity (a.u.)
8,TGTCAGTTGTTTGTTTTACGTGGATTGTGATGAATACTAGCGGAGTCACCTAGTGCAG,3960 fluorescence intensity (a.u.)
9,CAGTACTTGAAACATAATGTTTTCATACATTAGAGTAAAACGGAGTCACCTAGTGCAG,32000 fluorescence intensity (a.u.)
10,TTTCTGATTTACGTGGCTTGTGAGTAGGGCGCCTCCTCATCGGAGTCACCTAGTGCAG,4960 fluorescence intensity (a.u.)
11,CTCCAAATAAAATCTGCCACATGGGCCTCCTTTAAGTGTCCGGAGTCACCTAGTGCAG,3660 fluorescence intensity (a.u.)
12,ACAGGCTATTCTGCACTGAACAAGCTTCTTGGGCGGGAAGCGGAGTCACCTAGTGCAG,3230 fluorescence intensity (a.u.)
13,GACTTTCTCAAACACAGTCATGAACTCATGATACATGTCCCGGAGTCACCTAGTGCAG,4840 fluorescence intensity (a.u.)
14,ATCATTCATGCGCGTCTGGCTGCCCACTCCGCATATTCTGCGGAGTCACCTAGTGCAG,3540 fluorescence intensity (a.u.)
15,GTTTAGAATAGTTCCCGCAATGGCAAATGTCATTGTTTGTCGGAGTCACCTAGTGCAG,5020 fluorescence intensity (a.u.)
16,CAGATGCTCCGTCATCACCTAGTCATCACAAGCATTCTTTCGGAGTCACCTAGTGCAG,15300 fluorescence intensity (a.u.)
17,AAACAATTAATTCGGCAGAGAACATACTGAGTCATTTTGGCGGAGTCACCTAGTGCAG,3900 fluorescence intensity (a.u.)
18,TCATCTTCCTTAACAACTGCAGCATCACGTCATCGTCATCCGGAGTCACCTAGTGCAG,5410 fluorescence intensity (a.u.)
19,TATTGGTTTGTATCACGTCGTCATCAACACGATGAAGCTGCGGAGTCACCTAGTGCAG,4850 fluorescence intensity (a.u.)
20,AAATCATGACGTAATTAGGCTCAAAGGATTTGTCTCACAACGGAGTCACCTAGTGCAG,4650 fluorescence intensity (a.u.)
21,AAACCAATGGGGCAAGAAGTAGCGTCAATGCGTGATACAGCGGAGTCACCTAGTGCAG,3230 fluorescence intensity (a.u.)

# Looked up above.
# In binding signal, TACCGCAAAGATGAAGCTACCTTTTACCAGTTGTATATTGCGGAGTCACCTAGTGCAG has 35100 fluorescence intensity (a.u.)
# In binding signal, AAACCAATGGGGCAAGAAGTAGCGTCAATGCGTGATACAGCGGAGTCACCTAGTGCAG has 3230 fluorescence intensity (a.u.)
